{
  "source": "patent US20230038373A1",
  "about": "“STABILE CONJUGATE” (Glykos Biomedical OY, priority 2019, published 2023)",
  "tested_on": "processing α-mannosidase",
  "assay": "N-glycan profile of HCC-1954 cancer cells after kifunensine or ADC",
  "type": "cell-based",
  "conditions": "HCC-1954 cells, 3-4 days; 10 pM kifunensine; 10 nM or 100 nM ADC",
  "description": "JIMT-1 cancer cells (DSMZ-German Collection of Microorganisms and Cell Cultures; variable/medium HER2 expression) and HCC-1954 cancer cells (ATCC; high HER2 expression) were cultured according to the manufacturers' instructions in standard cell culture conditions and incubated for 3-4 days with either […] kifunensine or trastuzumab-kifunensine ADCs. Effect on N-glycan profiles of the cells was analyzed by isolating cellular N-glycans and MALDI-TOF MS as described above.",
  "note": "Some of these results come from one statement about several compounds together.",
  "data": [
    {"molecule": "O=C1N[C@@H]2[C@@H](O)[C@@H](O)[C@H](O)[C@@H](CO)N2C1=O", "note": "[kifunensine]", "values": [
      {"measurement": "Man9 glycan share of total oligomannose-type N-glycan signal intensity after incubation (before: below 20%)", "result": "over 60%"}
    ]}
  ]
}
